What was measured:
[1] = Solution-processed OLEDs from soluble functional materials
[2] = Vacuum-processed OLEDs (efficiency, voltage, colour coordinates, lifetime); conditions: for LT80 (h) 1000 cd/m^2: vacuum-processed red, yellow and green OLEDs

Compound | EQE (%) 1000 cd/m^2 ([1]; device Type 1, at 1000 cd/m^2) [%] | Voltage (V) 1000 cd/m^2 ([1]; device Type 1, at 1000 cd/m^2) [V] | also measured
c1ccc2c(c1)-c1ccccc1C21c2ccccc2-c2c[c]3c(cc21)-c1cc2c(c[n+]1[Ir-3]314([c]3ccccc3-c3cccc[n+]31)[c]1ccccc1-c1cccc[n+]14)C1CCC2CC1 [Ir514] | 20.7 | 4.2 | 
c1cc[c]2c(c1)-c1cccc[n+]1[Ir-3]213([c]2cc4c(cc2-c2cccc[n+]21)C1CCC4CC1)[c]1cc2c(cc1-c1cccc[n+]13)C1CCC2CC1 [Ir518] |  |  | LT80 (h) 1000 cd/m^2 [2]: 24000 h
c1ccc(-c2ccc3[n+](c2)[Ir-3]24([c]5ccccc5-c5cccc[n+]52)([c]2cc5c(cc2-3)C2CCC5CC2)[c]2cc3c(cc2-c2ccc(-c5ccccc5)c[n+]24)C2CCC3CC2)cc1 [Ir519] | 20.0 | 4.6 | 
c1ccc(-c2cc[n+]3c(c2)-c2cc4c(c[c]2[Ir-3]325([c]3ccccc3-c3cccc[n+]32)[c]2cc3c(cc2-c2cc(-c6ccccc6)cc[n+]25)C2CCC3CC2)C2CCC4CC2)cc1 [Ir520] | 21.3 | 4.0 | 
c1cc[c]2c(c1)-c1cccc[n+]1[Ir-3]213([c]2cc4c(cc2-c2cc(-c5ccc6c(c5)C5CCC6CC5)cc[n+]21)C1CCC4CC1)[c]1cc2c(cc1-c1cc(-c4ccc5c(c4)C4CCC5CC4)cc[n+]13)C1CCC2CC1 [Ir522] | 21.0 | 4.0 | 
Cc1cc2[n+](cc1-c1ccccc1)[Ir-3]13([c]4ccccc4-c4cccc[n+]41)([c]1cc4c(cc1-2)C1(C)CCC4(C)CC1)[c]1cc2c(cc1-c1cc(C)c(-c4ccccc4)c[n+]13)C1(C)CCC2(C)CC1 [Ir523] | 20.9 | 4.6 | 
Cc1cccc(C)c1-n1c2[n+](c3cc4c(cc31)C1CCC4CC1)[Ir-3]13([c]4ccccc4-c4cccc[n+]41)([c]1ccccc1-2)[c]1ccccc1-c1n(-c2c(C)cccc2C)c2cc4c(cc2[n+]13)C1CCC4CC1 [Ir524] | 14.6 | 4.8 | 
CC(C)(C)c1ccc2nc(-c3cc4c(c[c]3[Ir]([c]3ccccc3-c3ccccn3)[c]3cc5c(cc3-c3nc6ccc(C(C)(C)C)cc6c6c3C3CC7CC(C3)CC6C7)C3CC6CC(C3)CC5C6)C3CC5CC(CC4C5)C3)c3c(c2c1)C1CC2CC(CC3C2)C1 [Ir525] | 20.1 | 3.9 | 
CC12CCC(C)(CC1)c1c[c]([Ir]([c]3cc4c(cc3-c3cc(-c5ccccc5)ccn3)C(C)(C)C(C)(C)C4(C)C)[c]3cc4c(cc3-c3cc(-c5ccccc5)ccn3)C(C)(C)C(C)(C)C4(C)C)c(-c3ccccn3)cc12 [Ir528] | 20.9 | 4.2 | 
Cc1cccc(C)c1-n1c(-c2cccc[c]2[Ir]([c]2cc3c(cc2-c2cc(-c4ccccc4)ccn2)C(C)(C)OC3(C)C)[c]2cc3c(cc2-c2cc(-c4ccccc4)ccn2)C(C)(C)OC3(C)C)nc2cc3c(cc21)C1(C)CCC3(C)CC1 [Ir529] | 19.8 | 4.4 | 
CC1(C)c2cc(-c3cc(-c4ccccc4)ccn3)[c]([Ir]([c]3cc4c(cc3-c3cc(-c5ccccc5)ccn3)C(C)(C)C(C)(C)C4(C)C)[c]3cc4c(cc3-c3cc5c(cn3)C3CCC5CC3)sc3ccccc34)cc2C(C)(C)C1(C)C [Ir531] | 20.3 | 4.2 | 
c1ccc(-c2ccc(-c3cc4c(c[c]3[Ir]([c]3cc5c(cc3-c3ccccn3)C3CCC5CC3)[c]3cc5c(cc3-c3ccccn3)C3CCC5CC3)C3CC5CC(CC4C5)C3)nc2)cc1 [Ir532] | 20.7 | 4.6 | 
c1ccc(-c2cc3c(c[c]2[Ir]([c]2ccccc2-c2cc4c(cn2)C2CCC4CC2)[c]2cc4c(cc2-c2ccccn2)C2CCC4CC2)C2CCC3CC2)nc1 [Ir533] |  |  | LT80 (h) 1000 cd/m^2 [2]: 26000 h
CC(C)Cc1cc[c]2c3c1ccc1c4c(c[n+](c13)[Ir-3]213([c]2ccc(CC(C)C)c5ccc6c7c(c[n+]1c6c25)C1CC2CC(C1)CC7C2)[c]1ccc(CC(C)C)c2ccc5c6c(c[n+]3c5c12)C1CC2CC(C1)CC6C2)C1CC2CC(C1)CC4C2 [Ir602] | 20.9 | 3.9 | 
[2H]c1c([2H])[c]2c3c(c([2H])c([2H])c4c5c(c[n+](c43)[Ir-3]234([c]2c([2H])c([2H])c(-c6ccc7c(c6)C(C)(C)c6ccccc6-7)c6c([2H])c([2H])c7c8c(c[n+]3c7c26)C2CC3CC(C2)CC8C3)[c]2c([2H])c([2H])c(-c3ccc6c(c3)C(C)(C)c3ccccc3-6)c3c([2H])c([2H])c6c7c(c[n+]4c6c23)C2CC3CC(C2)CC7C3)C2CC3CC(C2)CC5C3)c1-c1ccc2c(c1)C(C)(C)c1ccccc1-2 [Ir603] | 20.7 | 4.1 | 
c1ccc(-c2cccc(-c3cc[c]4c5c3ccc3c6c(c[n+](c35)[Ir-3]435([c]4ccc(-c7cccc(-c8ccccc8)c7)c7ccc8c9c(c[n+]3c8c47)C3CC4CCC3CC94)[c]3ccc(-c4cccc(-c7ccccc7)c4)c4ccc7c8c(c[n+]5c7c34)C3CC4CCC3CC84)C3CC4CCC3CC64)c2)cc1 [Ir604] | 21.0 | 4.0 | 
c1ccc(-c2cc(-c3ccccc3)cc(-c3cccc(-c4cc[c]5c(c4)-c4c6cc7c(cc6cc[n+]4[Ir-3]546([c]5ccc(-c8cccc(-c9cc(-c%10ccccc%10)cc(-c%10ccccc%10)c9)c8)cc5-c5c8cc9c(cc8cc[n+]54)C4CC5CC(C4)CC9C5)[c]4ccc(-c5cccc(-c8cc(-c9ccccc9)cc(-c9ccccc9)c8)c5)cc4-c4c5cc8c(cc5cc[n+]46)C4CC5CC(C4)CC8C5)C4CC5CC(C4)CC7C5)c3)c2)cc1 [Ir607] |  |  | EQE (%) 1000 cd/m^2 ([1]; device Type 2, at 1000 cd/m^2): 16.8%; Voltage (V) 1000 cd/m^2 ([1]; device Type 2, at 1000 cd/m^2): 3.9 V
c1c[c]2c(cc1C1CCCCC1)-c1cc3cc4c(cc3c[n+]1[Ir-3]213([c]2ccc(C5CCCCC5)cc2-c2cc5cc6c(cc5c[n+]21)C1CCC6CC1)[c]1ccc(C2CCCCC2)cc1-c1cc2cc5c(cc2c[n+]13)C1CCC5CC1)C1CCC4CC1 [Ir608] |  |  | EQE (%) 1000 cd/m^2 ([1]; device Type 2, at 1000 cd/m^2): 18.6%; Voltage (V) 1000 cd/m^2 ([1]; device Type 2, at 1000 cd/m^2): 3.7 V
c1ccc(-c2cc[n+]3c(c2)-c2cc4c(c[c]2[Ir-3]325([c]3ccc(-c6ccc7c(c6)oc6ccccc67)cc3-c3cccc[n+]32)[c]2cc3c(cc2-c2cc(-c6ccccc6)cc[n+]25)C2CCC3CC2)C2CCC4CC2)cc1 [Ir612] | 20.5 | 4.1 | 
Cc1cc(-c2cc3c(c[c]2[Ir]([c]2ccc(-c4ccc5c(c4)c4ccccc4n5-c4ccccc4)cc2-c2ccccn2)[c]2cc4c(cc2-c2cc(C)c(-c5ccccc5)cn2)C2(C)CCC4(C)CC2)C2(C)CCC3(C)CC2)ncc1-c1ccccc1 [Ir613] | 20.7 | 4.5 | 
CC1(C)c2ccccc2-c2cc3c4ccccc4n(-c4cccc(-c5cc[c]([Ir]([c]6cc7c(cc6-c6ccccn6)C6CCC7CC6)[c]6cc7c(cc6-c6ccccn6)C6CCC7CC6)c(-c6cc7c(cn6)C6CCC7CC6)c5)c4)c3cc21 [Ir614] | 20.3 | 4.5 | 
CC1(C)c2ccccc2-c2cc3c4ccccc4n(-c4cc[c]5c(c4)-c4cccc[n+]4[Ir-3]546([c]5cc7c(cc5-c5cccc[n+]54)C4CCC7CC4)[c]4cc5c(cc4-c4cccc[n+]46)C4CCC5CC4)c3cc21 [Ir701] | 19.9 | 4.4 | 
Cc1cc2[n+](cc1-c1ccccc1)[Ir-3]13([c]4ccc(-n5c6ccc(-c7ccccc7)cc6c6cc(-c7ccccc7)ccc65)cc4-c4cccc[n+]41)([c]1cc4c(cc1-2)C1(C)CCC4(C)CC1)[c]1cc2c(cc1-c1cc(C)c(-c4ccccc4)c[n+]13)C1(C)CCC2(C)CC1 [Ir703] | 21.0 | 4.4 | 
c1cc[n+]2c(c1)-c1cc3c(c[c]1[Ir-3]214([c]2cc5c(cc2-c2cccc[n+]21)C1CCC5CC1)[c]1cc2c(cc1-c1cccc[n+]14)C1CCC2CC1)C1CCC3CC1 [Ir(LB1)3] | 20.7 | 4.5 | 
c1ccc(-c2cc[n+]3c(c2)-c2cc4c(c[c]2[Ir-3]325([c]3cc6c(cc3-c3cc(-c7ccccc7)cc[n+]32)C2CCC6CC2)[c]2cc3c(cc2-c2cc(-c6ccccc6)cc[n+]25)C2CCC3CC2)C2CCC4CC2)cc1 [Ir(LB3)3] | 22.1 | 4.1 | 
c1cc2c(cc1-c1cc[n+]3c(c1)-c1cc4c(c[c]1[Ir-3]315([c]3cc6c(cc3-c3cc(-c7ccc8c(c7)C7CCC8CC7)cc[n+]31)C1CCC6CC1)[c]1cc3c(cc1-c1cc(-c6ccc7c(c6)C6CCC7CC6)cc[n+]15)C1CCC3CC1)C1CCC4CC1)C1CCC2CC1 [Ir(LB9)3] | 21.8 | 4.1 | 
Cc1cc2[n+](cc1-c1ccccc1)[Ir-3]13([c]4cc5c(cc4-2)C2(C)CCC5(C)CC2)([c]2cc4c(cc2-c2cc(C)c(-c5ccccc5)c[n+]21)C1(C)CCC4(C)CC1)[c]1cc2c(cc1-c1cc(C)c(-c4ccccc4)c[n+]13)C1(C)CCC2(C)CC1 [Ir(LB11)3] | 21.0 | 4.5 | 
c1c[c]2c3c(c1)c1ccccc1n1c4c([n+](c31)[Ir-3]213([c]2cccc5c6ccccc6n6c7c([n+]1c6c25)C1CCC7CC1)[c]1cccc2c5ccccc5n5c6c([n+]3c5c12)C1CCC6CC1)C1CCC4CC1 [Ir(LB120)3] |  |  | LT50 (h) 1000 cd/m^2 ([2]; vacuum-processed blue OLEDs): 500 h

Reference: patent US11005050B2, “Metal complexes” (Merck Patent GmbH, priority 2014, dated 2021)
